Measurements reported in PMC6936879 (PLoS ONE, 2019).
Where a sequence shows no end group, the ends are not given.

Assay: general procedure: Fmoc solid-phase peptide synthesis; rink-amide resin (GLC, Shanghai, China); HBTU/DIPEA in DMF
Details: whole synthesis

Sequence	final purity (method not given)
AKIQGMDPVWVTA	96.0%
KIQGMDPVWVT	96.9%
